According to PMC11477680:
For some of these results: No signal at the amounts used counts as a negative. For some of these results: The exact form of at least one protein or probe is not confirmed.

Assays:
[1] = system: hemoglobin (Hb); assay: electrochemical aptasensor (DPV); conditions: 1 ng/mL, negligible current change; 5'-SH-(C6) thiol linker; Aptamer immobilization: 20 mM Tris-HCl, 5 mM MgCl2, 50 mM NaCl, pH 7.4, 4 C; cTnI incubation 1 h (serum samples: 10% serum in 20 mM Tris-HCl, 150 mM NaCl, pH 7.4, 37 C); commercial protein; single-stranded DNA
[2] = system: cardiac troponin T (cTnT); assay: electrochemical aptasensor (DPV); conditions: 1 ng/mL, negligible current change; 5'-SH-(C6) thiol linker; Aptamer immobilization: 20 mM Tris-HCl, 5 mM MgCl2, 50 mM NaCl, pH 7.4, 4 C; cTnI incubation 1 h (serum samples: 10% serum in 20 mM Tris-HCl, 150 mM NaCl, pH 7.4, 37 C); commercial protein; single-stranded DNA
[3] = molecular target: bovine serum albumin (BSA) (bovine) (UniProt P02769); assay: electrochemical aptasensor (DPV); conditions: 1 ng/mL, negligible current change; 5'-SH-(C6) thiol linker; Aptamer immobilization: 20 mM Tris-HCl, 5 mM MgCl2, 50 mM NaCl, pH 7.4, 4 C; cTnI incubation 1 h (serum samples: 10% serum in 20 mM Tris-HCl, 150 mM NaCl, pH 7.4, 37 C); commercial protein; single-stranded DNA
[4] = molecular target: cardiac troponin I (cTnI) (UniProt P19429); assay: not stated (cited); conditions: 5'-SH-(C6) thiol linker; Aptamer immobilization: 20 mM Tris-HCl, 5 mM MgCl2, 50 mM NaCl, pH 7.4, 4 C; cTnI incubation 1 h (serum samples: 10% serum in 20 mM Tris-HCl, 150 mM NaCl, pH 7.4, 37 C); commercial protein; single-stranded DNA

Does “CGTGCAGTACGCCAACCTTTCTCATGCGCTGCCCCCCTCTTA [Tro4]” bind [1]?
Result: no binding

Does “CGTGCAGTACGCCAACCTTTCTCATGCGCTGCCCCCCTCTTA [Tro4]” bind [2]?
Result: no binding

Does “CGTGCAGTACGCCAACCTTTCTCATGCGCTGCCCCCCTCTTA [Tro4]” bind [3]?
Result: no binding

And the Kd [4]?
The Kd was 0.27 nM.
